In patent publication US20220348985:
Construct, isoform or probe ends are uncertain for at least one entry. For part of these data: A negative result means that nothing was seen under these conditions.

Legend:
Assay in all cases: binding assay
[1] = tested on: thrombin; settings: 50 nM each strand, purified native protein
[2] = tested on: hemoglobin; settings: 25 nM protein, purified native protein
[3] = tested on: immunoglobulin G (IgG); settings: 25 nM protein, purified native protein
[4] = molecular target: proteinase K (UniProt P06873); settings: 25 nM protein, purified native protein
[5] = molecular target: single-strand DNA-binding protein (SSDBP) (UniProt P0AGE0); settings: 25 nM protein, purified recombinant protein
[6] = tested on: elastase; settings: 25 nM protein, purified native protein
[7] = THR1D: GGTTGGTGTGGTTGG-(Spacer18)5-CGC-D-TCT, D = quinoline blue base surrogate at 4th position from 3' end (D and spacers not shown in listing), THR2: AGATGCG-(Spacer18)5-AGTCCGTGGTAGGGCAGGTTGGGGTGACT, negligible signal, TBS pH 7.4, 10 C, label: quinoline blue (internal, THR1D)
[8] = Split-THRa: TGGTTGGTTTTTT-(Spacer18)5-CGC-D-TCT, D = quinoline blue at 4th position from 3' end (D and spacers not shown in listing), Split-THRb: AGATGCG-(Spacer18)5-AAAAAAGGTTGGTG, no probe turn-on, TBS with 100 mM KCl, 10 C, label: quinoline blue (internal, Split-THRa)

GGTTGGTGTGGTTGGCGCATCT / AGATGCGAGTCCGTGGTAGGGCAGGTTGGGGTGACT [THR1-F + THR2-T (FRET pair)]
binding result ([1]; (Spacer18)5 between aptamer and 7-nt complementary tail in each strand, 50 nM thrombin, Tris-buffered saline pH 7.4, 10 C, [p98] gives 1.25-fold, label: 3' fluorescein (THR1-F), 5' TAMRA dT (THR2-T)): binds

GGTTGGTGTGGTTGGCGCTCT / AGATGCGAGTCCGTGGTAGGGCAGGTTGGGGTGACT [THR1D + THR2 (two-epitope FIT-aptamer pair)]
binding result [2, 7]: no binding
binding result [3, 7]: no binding
binding result [4, 7]: no binding
binding result ([5]; THR1D: GGTTGGTGTGGTTGG-(Spacer18)5-CGC-D-TCT, D = quinoline blue base surrogate at 4th position from 3' end (D and spacers not shown in listing), THR2: AGATGCG-(Spacer18)5-AGTCCGTGGTAGGGCAGGTTGGGGTGACT, negligible FIT signal (readout is dye turn-on, not direct binding), TBS pH 7.4, 10 C, label: quinoline blue (internal, THR1D)): no binding
binding result [6, 7]: no binding

TGGTTGGTTTTTTCGCTCT / AGATGCGAAAAAAGGTTGGTG [Split-THRa + Split-THRb (FIT split aptamer)]
binding result [2, 8]: no binding
binding result [3, 8]: no binding
binding result [4, 8]: no binding
binding result ([1]; Split-THRa: TGGTTGGTTTTTT-(Spacer18)5-CGC-D-TCT, D = quinoline blue at 4th position from 3' end (D and spacers not shown in listing), Split-THRb: AGATGCG-(Spacer18)5-AAAAAAGGTTGGTG, 200 nM thrombin, Tris-buffered saline with 100 mM KCl pH 7.4, 10 C, LOD 14.76 nM, label: quinoline blue (internal, Split-THRa)): binds
binding result ([5]; Split-THRa: TGGTTGGTTTTTT-(Spacer18)5-CGC-D-TCT, D = quinoline blue at 4th position from 3' end (D and spacers not shown in listing), Split-THRb: AGATGCG-(Spacer18)5-AAAAAAGGTTGGTG, no probe turn-on (readout is dye turn-on, not direct binding), TBS with 100 mM KCl, 10 C, label: quinoline blue (internal, Split-THRa)): no binding
binding result [6, 8]: no binding
